# Measured values published in PMC12040169 (PLOS Biology, 2025).
# The list shows a part of the results.
# Test system: T1, CTL2-GFP (C. trachomatis L2/434/Bu, GFP-expressing)
# T1 construct: L2/434/Bu, GFP-expressing
# Parameters: species or system HeLa; Intracellular C. trachomatis growth in HeLa cells, bulk GFP fluorescence relative to DMSO
# Conditions: bulk GFP, single well; 28.5 h, 10 µM; inhibitor
row,Compound,% of control remaining [%]
1,Cc1nn(C)c(C)c1NC(=O)c1ncoc1-c1ccc(F)cc1 [CBK282359],123.55
2,O=S(=O)(c1cnc(Cl)c(Br)c1)N1CCC2(CC1)OCCO2 [CBK044070],89.9449
3,CN(CC(=O)NCC1CCN(c2cccc(Cl)c2)C1)Cc1cccnc1 (stereo not drawn) [CBK306761],116.842
4,CS(=O)(=O)c1ccc(CN2C(=O)CC3(CCN(C(=O)c4ccc([N+](=O)[O-])cc4)CC3)C2=O)cc1 [CBK155019],129.454
5,O=c1ccc(-c2ccccc2)nn1CC1CCNCC1 [CBK284203],121.296
6,O=C(C1COc2ccccc2O1)N1CCN(c2ncccn2)CC1 (stereo not drawn) [CBK144502],91.5455
7,O=C(N/N=C\c1c(F)cccc1Cl)c1ccncc1 [CBK023263],171.482
8,COc1ccccc1-c1nccnc1N[C@H]1CCN(Cc2ccccc2)C1 [CBK037626],164.359
9,O=S(=O)(Nc1ccccn1)c1cccs1 [CBK043773],104.044
10,Cc1cccc(CN2CCC(N(C)Cc3nnc(C4CC4)n3C)C2)c1 (stereo not drawn) [CBK305165],131.886
11,O=C(CC1C(=O)NCCN1C(=O)Nc1ccc(OCc2ccccc2)cc1)Nc1ccc(F)cc1 (stereo not drawn) [CBK086203],66.1066
12,Fc1ccc(-c2cncc(NCCc3cccnc3)n2)cc1Cl [CBK065745],127.049
13,CC(C)C(=O)N(C)c1nnc(-c2cccnc2)s1 [CBK007554],138.307
14,Cc1nc(C2CCN(C(=O)c3cccnc3)CC2)c2sccn12 [CBK282233],95.4754
15,CN(C)c1nc2c(c(-c3cncc(N)c3)n1)CCCC2 [CBK307503],131.715
16,CC(C)(C)c1ccc(S(=O)(=O)N2CCN(CCC(=O)O)CC2)cc1 [CBK297089],138.21
17,COc1ccc(-c2cc3nnc(C)nc3s2)cc1 [CBK025638],113.665
18,Cc1cc(N)n(CC(=O)NCCCn2ccnc2C(C)C)n1 [CBK306632],78.4051
19,O=C(Nc1ccc(F)cc1)c1ccsc1NS(=O)(=O)Cc1ccccc1[N+](=O)[O-] [CBK042313],116.298
20,O=c1oc2cc(Oc3ccc([N+](=O)[O-])cc3C(F)(F)F)c(Cl)cc2c2c1CCCC2 [CBK264914],100
21,Cc1ccc(C2C(C(=O)c3cccs3)=C(O)C(=O)N2CCN2CCOCC2)o1 (stereo not drawn) [CBK264559],100
22,CCn1c2ccccc2c2ccc(/C=N/NC(=O)c3ccc(O)cc3O)cc21 [CBK262948],93.432
23,CC12CCC(=O)N1C(C(=O)NCCNc1ccc(S(C)(=O)=O)cc1[N+](=O)[O-])CS2 (stereo not drawn) [CBK296661],111.517
24,CC(C)(C)c1cc(C[C@H]2CNCC[C@H]2CC(=O)N2CCN(c3ccccn3)CC2)no1 [CBK288799],136.65
25,O=C1c2ccccc2NC(c2ccc(O)cc2)N1/N=C/c1ccc(O)cc1 (stereo not drawn) [CBK262985],109.57
26,Cc1cccc(NC(=O)NC(=O)C2CCN(CCOc3ccccc3)CC2)c1 [CBK034868],104.793

# Given with bars between the fields: 2 of the compounds above
row | Compound | % of control remaining [%]
8 | COc1ccccc1-c1nccnc1N[C@H]1CCN(Cc2ccccc2)C1 [CBK037626] | 164.359
22 | CCn1c2ccccc2c2ccc(/C=N/NC(=O)c3ccc(O)cc3O)cc21 [CBK262948] | 93.432

# Additional compounds follow:

row,Compound,% of control remaining [%]
1,CCCN1C[C@H](NC(=O)C2CC2)[C@@H](c2ccc(OC)cc2)C1 [CBK282518],116.172
2,c1csc(CN2CCC[C@H]2c2nc(-c3ccc(-n4ccnc4)nc3)no2)c1 [CBK288895],96.1986
3,O=C1c2ccccc2CN1c1ccc(Cl)cc1Cl [CBK109908],71.9072
4,O=C(N[C@@H]1CCOC[C@H]1Oc1ccc(CO)cc1)c1ccc(F)cc1 [CBK306571],114.02
5,CN(C)CCCN1C(=O)C(O)=C(C(=O)c2ccccc2)C1c1ccccn1 (stereo not drawn) [CBK287778],90.2792
6,COc1cc([N+](=O)[O-])cc2cc(C(=O)NNC(=O)c3ccccc3Cl)c(=O)oc12 [CBK267011],144.184
7,O=c1[nH]c2ccccc2n1C1CCN(S(=O)(=O)c2cccs2)CC1 [CBK149689],90.7219
8,O=C(C1CCC1)N1CCC(c2nc(Cc3cccs3)no2)C1 (stereo not drawn) [CBK283028],136.454
9,O=C(O)c1cc2c(s1)CN(C1CCCCC1)C2 [CBK286885],118.236
10,O=C(c1cc(F)c(F)cc1F)N1CCC2(CCN(C(=O)C3COc4ccccc4O3)C2)C1 (stereo not drawn) [CBK131390],112.192
11,CO[C@@H]1CO[C@H]2[C@@H]1OC[C@@H]2NC(=O)Nc1ccc(C(C)=O)cc1 [CBK289462],123.431
12,Nc1nonc1-c1noc(-c2cccc(Cl)c2)n1 [CBK026691],160.967
13,O=C(/C=C/c1ccccc1)NC(=S)Nc1ccc2oc(-c3ccncc3)nc2c1 [CBK263687],102.043
14,Cc1ccc(-c2cc(C3CCN(C(=O)c4cnn(C)c4)C3)[nH]n2)cc1 (stereo not drawn) [CBK285266],127.509
15,CC1CCc2c(sc3ncnc(OCC(=O)N4CCOCC4)c23)C1 (stereo not drawn) [CBK306000],111.838
16,[O-][N+]1=C2CCc3c(no[n+]3[O-])C2(O)CC1N1CCOCC1 (stereo not drawn) [CBK261515],81.1338
17,CN(C)c1cccc(C(=O)Nc2cnc(-c3cccc(C(F)(F)F)c3)c(-c3cccnc3)n2)c1 [CBK036752],87.1275
18,O=C(CN1CCCN(c2nccs2)CC1)Nc1cc(Cl)ccc1Cl [CBK305921],124.351
19,COc1ccccc1C(NC(=O)N(C(C)C)C(C)C)c1nccn1C (stereo not drawn) [CBK283834],138.268
20,CCn1c(CN2CCC(c3noc(C)n3)CC2)nc2c(F)cccc21 [CBK304960],103.14
21,O=C(Nc1ccc(N2CCNCC2)nc1)c1ccccc1 [CBK028277T],130.327
22,Clc1ccc(CN2CCN(c3nccnc3OCc3cccnc3)CC2)cc1 [CBK083130T],91.7677
23,Cc1nnc2sc(-c3ccc(NC(=S)NC(=O)c4cc5ccccc5o4)cc3)nn12 [CBK266795],138.545
24,CSCCCNC(=O)N(Cc1cccnc1)Cc1ccc2c(c1)OCO2 [CBK159426],96.4522
25,CCCCN(C)S(=O)(=O)NCc1cn2ccccc2n1 [CBK306329],112.378
26,C=CCc1cccc(Cl)c1OCCN1CCNCC1 [CBK266071G],162.434

row,Compound,% of control remaining [%]
1,c1ccc([C@@H]2CN(Cc3ccccn3)C[C@H]2c2cc[nH]n2)cc1 [CBK285162],130.843
2,COc1ccc([C@H]2C3CCCCC3[C@@H]2NC(=O)C2CCCO2)cc1 (stereo partly drawn) [CBK282990],107.386
3,CCN(CC)c1ccc(NC(=O)COc2ccccc2)cc1 [CBK096048],178.066
4,Cc1cc(CN(C)Cc2c(C)nc3ccc(Cl)cn23)n[nH]1 [CBK281913],109.602
5,O=C(NCc1ccc2c(c1)OCO2)c1ccc(Oc2ccccc2)cc1 [CBK293982],70.0011
6,COc1cccc(CCC(=O)n2ccn(CCCOc3ccccc3)c2=O)c1 [CBK106565],102.167
7,O=C(Cc1csc2ccccc12)Nc1cnc(-c2ccc(F)cc2)c(-c2ccoc2)n1 [CBK037102],116.193
8,CC(C)CCNC(=O)c1cccc(-n2c(=S)[nH]c3cc(Cl)ccc3c2=O)c1 [CBK294444],123.823
9,Cc1nn(C)c(C)c1NC(=O)COc1ccccc1C#N [CBK305850],104.749
10,COc1ccc(C(NC(=O)[C@H]2CCCN2C(=O)c2c(-c3ccccc3)noc2C)c2ccccc2C)cn1 (stereo partly drawn) [CBK075055],107.548
11,Cc1cc(C(C)(C)C)ccc1OCCNCCN [CBK265097G],128.747
12,C/C(CS(=O)(=O)c1ccccc1)=N/NC(N)=S [CBK026285],124.734
13,COc1ccc(Cn2nc(NC(=O)Nc3c(C)noc3C)c3ccccc32)cc1 [CBK048528],107.968
14,CCc1nc(CNC(=O)c2cc3cc(F)ccc3n2C)no1 [CBK281414],113.525
15,OCc1ccccc1-c1cncc(N2CCN(c3ccncc3)CC2)n1 [CBK065208],143.751
16,Cc1oc(-c2ccccc2)cc1C(=O)NCc1ccc(OC2CCNCC2)cc1 [CBK038915T],88.4325
17,CN(C)c1ccc(C=Nc2ccc(NC(=O)CCC(=O)O)cc2)cc1 [CBK296091],144.21
18,Clc1ccc(CN2CCC(NCCCn3cccn3)CC2)cc1 [CBK304004],128.52
19,CCCc1n[nH]c(-c2c(F)cccc2F)c1C(=O)OCC [CBK113546],96.7047
20,Cc1ccc(-c2nnc(COC(=O)c3c4c(nc5ccccc35)CCCC4)o2)cc1 [CBK269728],100.679
21,COc1cccc(CCC(=O)Nc2cnc(-c3cccc(C(F)(F)F)c3)c(-c3cccnc3)n2)c1 [CBK036835],116.003
22,CC(NS(=O)(=O)c1cccc2c(S(=O)(=O)NC(C)c3ccccc3)cccc12)c1ccccc1 (stereo not drawn) [CBK267717],138.182
23,Cc1ncccc1-c1cc2cccnc2n1CCCNC(=O)C1CC1 [CBK282687],107.493
24,CCOC(=O)c1sc2nc(N3CCOCC3)c3c(c2c1N)CCCC3 [CBK131870],83.3846
25,O=C(Nc1ccc2c(c1)OCCO2)c1cc(S(=O)(=O)N2CCCCC2)c(Cl)cc1Cl [CBK265790],187.865
26,COC(=O)c1ccccc1NC(=O)c1ccc(-n2cnnn2)cc1 [CBK058360],113.885

# Given with bars between the fields: 2 of the compounds above.
row | Compound | % of control remaining [%]
3 | CN(CC(=O)NCC1CCN(c2cccc(Cl)c2)C1)Cc1cccnc1 (stereo not drawn) [CBK306761] | 116.842
14 | Cc1ccc(-c2cc(C3CCN(C(=O)c4cnn(C)c4)C3)[nH]n2)cc1 (stereo not drawn) [CBK285266] | 127.509
